Experimental data: PubChem BioAssay AID1159584 (Peter MacCallum Cancer Centre, 2016)
This is one part, drawn at random, of about 18,000 reagents tested. Not all columns of the deposit are shown. Not stated in the record: the amount of reagent, the time to read-out.

Screen: 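Knock-downs that harm CDH1-null cells more than parental MCF10A cells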 (primary screen)
Cells: human MCF10A breast epithelial cells, parental and CDH1-null
Reagent: siRNA against human genes
Measurement: 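Cell viability by CellTiter-Glo ATP luminescence, each line scaled to the mean of mock wells across plates, then CDH1-null over parental ratio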
Direction: CDH1-null / parental viability ratio: higher = CDH1-null cells survive relatively better than parental; CDH1-null viability vs mock: higher = more viable CDH1-null cells

gene,CDH1-null / parental viability ratio,CDH1-null viability vs mock (fraction of mock)
COL6A5,0.81,0.58
KRT31,1.13,0.76
CFAP68,1.21,0.94
MTUS1,0.86,0.64
SPANXN1,0.79,0.66
OFCC1,1.06,0.36
MTHFSD,0.97,0.71
GABARAPL1,1.13,0.8
VCF2,1.42,0.54
CCL20,0.98,0.98
TERF2,1.3,0.91
ACTRT3,0.91,0.86
UBE2G2,1.18,0.9
CRMP1,1.07,0.98
ATP6V1E2,0.95,0.84
RBM15B,0.92,0.76
SPACA5B,0.95,0.87
WWOX,1.01,0.77
IARS1,0.88,1.04
NUDT14,1.42,0.85
OR52A5,1.14,0.64
TCEAL6,1.15,0.9
SNRNP35,0.66,0.57
CPNE8,1.11,1.08
COX15,0.87,0.82
OR14K1,0.81,0.62
ANAPC11,1.37,0.52
TMEM47,1.21,1.02
ZCCHC17,1.14,0.8
A2ML1,0.69,0.98
OR51S1,0.82,0.7
IFI27,1.01,0.69
DHRS9,0.9,0.76
ZNF329,0.95,0.82
CRYGS,0.73,0.66
PIGA,0.89,1.01
OTX2,0.92,0.61
HINT2,0.91,0.61
ZZZ3,1.09,0.47
EDEM3,1.11,0.91
C1QTNF9B,1.37,0.96
PURA,0.91,0.87
REM2,0.81,0.34
FTH1,0.88,1
BTD,1.03,0.72
BUB3,0.78,0.43

No new results follow: entries from further up.
gene,CDH1-null / parental viability ratio,CDH1-null viability vs mock (fraction of mock)
COX15,0.87,0.82
OR14K1,0.81,0.62
ANAPC11,1.37,0.52
TMEM47,1.21,1.02
ZCCHC17,1.14,0.8
A2ML1,0.69,0.98
OR51S1,0.82,0.7
IFI27,1.01,0.69
